Reference: patent EP1785722A1, “Microbial, viral and mammalian susceptibility to agents that affect cell growth and metabolism, and compatibility of compounds” (Stratos Bio Ltd., priority 2005, dated 2007)
At least one compound was matched to its structure with a doubt left.

Test system: Bacillus pumilus
Experiment: Flow microcalorimetry (p-t curves) of growing Bacillus pumilus
Type: cell-based
Settings: 0.5 ug/ml added at 0 % of p-t curve
Source text: • a) For B. pumilus a simple glucose/salts medium was employed with a glucose concentration of 0.1 % w/v. • b) For Bord. bronch. The above salts medium was used with the addition of nicotinic acid, methionine and glutamic acid. Glutamic acid was used at a concentration of 0.2% w/v. • c) For M. flavus a semidefined medium was employed, using the same salts as a B. pumilus but also Na-citrate, biotin and protease peptone. In the calorimeter a concentration of 0.4% protease peptone was used. All medium constituents (except protease) were analytical reagents. The calorimetric medium was therefore a final concentration of 100ml of either solution a, b or c freshly autoclaved for 15 mins exactly at 121°C, 151b/sq inch. Glucose was added to the appropriate solution after autoclaving.
To the vertical face of the vessel close to its base, equidistantly spaced around the circumference, ports were fitted for an oxygen electrode and for sampling/inoculation. The fermenter was closed with a flat flanged glass lid which had five ports accommodating respectively, gas inlet tube, gas exhaust (via air condenser), inlet and outlet flow-lines to and from the calorimeter. The fermenter and lid was sealed with a p.t.f.e. gasket and clamped with a metal clip. […]

Structure (SMILES): NC[C@@H]1O[C@H](O[C@H]2[C@@H](O)[C@H](O[C@@H]3[C@@H](O)[C@H](N)C[C@H](N)[C@H]3O[C@H]3O[C@H](CN)[C@@H](O)[C@H](O)[C@H]3N)O[C@@H]2CO)[C@H](N)[C@@H](O)[C@@H]1O.O=S(=O)(O)O [neomycin sulphate, Neomycin sulphate]
- Observed effect on p-t curves Related to standard growth curve: O.75 of standard curve or less
